Some of the results follow. Many values rest on one well or one pass, so single values are uncertain.
Assays:
Assay in all cases: reduction in cell viability relative to untreated/vehicle; higher = more growth inhibition
Settings in all cases: 200 nM; 72 h
M229P = system: M229P (parental melanoma line)
M229R = system: M229R (matched melanoma line resistant to BRAF inhibitors)
M238P = system: M238P (parental melanoma line)
M238R = system: M238R (matched melanoma line resistant to BRAF inhibitors)
M249P = system: M249P (parental melanoma line)
M249R = system: M249R (matched melanoma line resistant to BRAF inhibitors)
UACC62P = system: UACC62P (parental melanoma line)
UACC62R = system: UACC62R (matched melanoma line resistant to BRAF inhibitors)

SMILES	reduction in cell viability (M229P)	reduction in cell viability (M229R)	reduction in cell viability (M238P)	reduction in cell viability (M238R)	reduction in cell viability (M249P)	reduction in cell viability (M249R)	reduction in cell viability (UACC62P)	reduction in cell viability (UACC62R)
c1ccc2c(Cc3c[nH]c4ccccc34)c[nH]c2c1 [Diindolylmethane]	< 0%	< 0%	< 0%	< 0%	< 0%	8.3%	< 0%	< 0%
COc1cc(C[C@@H](CO)[C@H](CO)Cc2ccc(O)c(OC)c2)ccc1O [Secoisolariciresinol]	< 0%	< 0%	< 0%	< 0%	< 0%	< 0%	< 0%	< 0%
CCCCCCCCCCCCc1ccc(S(=O)(=O)Nc2nncs2)cc1	< 0%	< 0%	< 0%	< 0%	< 0%	< 0%	2.12%	< 0%
CN(C)CCCN=c1c2ccccc2n(C)c2[nH]c(=O)n(C)c(=O)c12	< 0%	< 0%	< 0%	< 0%	< 0%	< 0%	16.5%	< 0%
C[C@@H](O)[C@@H]1NC(=O)[C@H](CCCCN)NC(=O)[C@@H](Cc2c[nH]c3ccccc23)NC(=O)[C@H](Cc2ccccc2)NC(=O)[C@@H](NC(=O)[C@H](N)Cc2ccccc2)CSSC[C@@H](C(=O)N[C@H](CO)[C@@H](C)O)NC1=O [Octreotide]	< 0%	< 0%	< 0%	< 0%	< 0%	< 0%	< 0%	< 0%
CCN1CCN(Cc2ccc(-c3cc4c(N[C@H](C)c5ccccc5)ncnc4[nH]3)cc2)CC1	< 0%	< 0%	< 0%	< 0%	3.37%	3.29%	3.27%	< 0%
CC(C)n1c(/C=C/C(O)CC(O)CC(=O)O)c(-c2ccc(F)cc2)c2ccccc21 (centres undefined) [Fluvastatin]	< 0%	< 0%	5.27%	< 0%	< 0%	< 0%	< 0%	< 0%
CN(C)CCc1c[nH]c2ccc(C[C@H]3COC(=O)N3)cc12 [Zolmitriptan]	< 0%	< 0%	< 0%	< 0%	< 0%	2.03%	3.5%	< 0%
N#CC(c1ccnc(OCc2ccc(CN3CCOCC3)cc2)n1)c1nc2ccccc2s1 (centres undefined)	< 0%	< 0%	< 0%	< 0%	< 0%	< 0%	< 0%	< 0%
CN(C)CCN1C(=O)c2cccc3cc(N)cc(c23)C1=O [Amonafide]	< 0%	< 0%	< 0%	< 0%	< 0%	< 0%	< 0%	< 0%
OCc1ccccc1O[C@@H]1O[C@H](CO)[C@@H](O)[C@H](O)[C@H]1O [Salicin]	< 0%	< 0%	< 0%	< 0%	< 0%	< 0%	< 0%	< 0%
O=C(NCCS(=O)(=O)c1ccc(C(F)(F)F)cn1)c1ccc(Cl)cc1	< 0%	< 0%	< 0%	< 0%	< 0%	< 0%	< 0%	< 0%
CN1C2=CC(=O)/C(=N\NC(N)=O)C=C2CC1S(=O)(=O)O (centres undefined) [Carbazochrome sodium sulfonate]	< 0%	< 0%	< 0%	< 0%	< 0%	< 0%	< 0%	< 0%
CC(C)Oc1ccc(C(=O)N[C@H](CNC(=O)CN(C)C)Cc2ccc(-c3cn4cccc([C@H](C)O)c4n3)cc2)cc1Cl	29.9%	47.9%	59.3%	63.4%	28.7%	43.5%	57.6%	84.5%
CC(=O)c1c(C)c2cnc(Nc3ccc(N4CCNCC4)cn3)nc2n(C2CCCC2)c1=O	< 0%	< 0%	< 0%	< 0%	< 0%	< 0%	< 0%	< 0%
COc1cc2/c(=N/c3ccc(Br)cc3F)nc[nH]c2cc1OCC1CCN(C)CC1 [Vandetanib]	< 0%	< 0%	< 0%	< 0%	< 0%	< 0%	< 0%	< 0%
C[C@@](Cc1ccc(O)c(O)c1)(NN)C(=O)O [Carbidopa]	< 0%	< 0%	< 0%	< 0%	1.2%	< 0%	6.05%	< 0%

Two consecutive entries from above, quoted:
SMILES	reduction in cell viability (M229P)	reduction in cell viability (M229R)	reduction in cell viability (M238P)	reduction in cell viability (M238R)	reduction in cell viability (M249P)	reduction in cell viability (M249R)	reduction in cell viability (UACC62P)	reduction in cell viability (UACC62R)
C[C@@H](O)[C@@H]1NC(=O)[C@H](CCCCN)NC(=O)[C@@H](Cc2c[nH]c3ccccc23)NC(=O)[C@H](Cc2ccccc2)NC(=O)[C@@H](NC(=O)[C@H](N)Cc2ccccc2)CSSC[C@@H](C(=O)N[C@H](CO)[C@@H](C)O)NC1=O [Octreotide]	< 0%	< 0%	< 0%	< 0%	< 0%	< 0%	< 0%	< 0%
CCN1CCN(Cc2ccc(-c3cc4c(N[C@H](C)c5ccccc5)ncnc4[nH]3)cc2)CC1	< 0%	< 0%	< 0%	< 0%	3.37%	3.29%	3.27%	< 0%

(next part)

SMILES	reduction in cell viability (M229P)	reduction in cell viability (M229R)	reduction in cell viability (M238P)	reduction in cell viability (M238R)	reduction in cell viability (M249P)	reduction in cell viability (M249R)	reduction in cell viability (UACC62P)	reduction in cell viability (UACC62R)
Cc1c(CCOc2ccc(C(=O)O)cc2)c2cc(Cl)ccc2n1C(c1ccccc1)c1ccccc1	< 0%	< 0%	< 0%	< 0%	< 0%	< 0%	< 0%	< 0%
O=C(Nc1ccc(OC(F)(F)F)cc1)c1sccc1NCc1ccnc2ccccc12	< 0%	< 0%	< 0%	< 0%	< 0%	< 0%	< 0%	< 0%
C[C@](N)(Cc1ccc(O)c(O)c1)C(=O)O [Methyldopa]	< 0%	< 0%	< 0%	< 0%	< 0%	< 0%	< 0%	< 0%
NC(=O)N/N=C/c1ccc([N+](=O)[O-])o1 [Nitrofurazone]	< 0%	< 0%	< 0%	< 0%	< 0%	< 0%	4.11%	< 0%
O=C(Nc1cccnc1)N1CCC(Cc2cccc(Oc3ccc(C(F)(F)F)cn3)c2)CC1	< 0%	< 0%	< 0%	< 0%	< 0%	< 0%	14.5%	< 0%
Nc1ccn([C@@H]2CO[C@H](CO)O2)c(=O)n1 [Troxacitabine]	< 0%	< 0%	< 0%	< 0%	< 0%	8.8%	2.31%	< 0%
CC(C)(C)OC(=O)CN(Cc1ccc(Cl)cc1)Cc1ccc([N+](=O)[O-])s1	< 0%	< 0%	< 0%	< 0%	< 0%	< 0%	< 0%	< 0%
CCCCCN(CCC12CC3CC(CC(C3)C1)C2)C(=O)NCCCc1ccncc1	< 0%	< 0%	< 0%	< 0%	< 0%	< 0%	< 0%	< 0%
O=c1ccc2ccc(O)c(O)c2o1 [Daphnetin]	< 0%	< 0%	< 0%	< 0%	< 0%	< 0%	3.29%	< 0%
C[C@@H](Oc1ccc2[nH]nc(/C=C/c3cnn(CCO)c3)c2c1)c1c(Cl)cncc1Cl	< 0%	27.7%	22.5%	23.7%	< 0%	< 0%	< 0%	46.3%
Oc1c(Cl)cc(Cl)c2cccnc12 [Chloroxine]	< 0%	< 0%	< 0%	< 0%	< 0%	< 0%	< 0%	< 0%
Cc1cnc(Nc2ccc(OCCN3CCCC3)cc2)nc1Nc1cccc(S(=O)(=O)NC(C)(C)C)c1	< 0%	< 0%	20.6%	< 0%	< 0%	< 0%	< 0%	< 0%
CCN(CC)CCCC(C)Nc1ccnc2cc(Cl)ccc12 (centres undefined) [Chloroquine]	1.28%	< 0%	< 0%	< 0%	< 0%	16.2%	< 0%	< 0%
COc1ccc(/C=C\c2cc(OC)c(OC)c(OC)c2)cc1O [Combretastatin A-4]	34.3%	36.5%	51.9%	59.1%	61.2%	34.9%	52.1%	68.1%
OCc1ccc(-c2nn(Cc3ccccc3)c3ccccc23)o1 [Lificiguat]	< 0%	< 0%	< 0%	< 0%	< 0%	< 0%	19.9%	< 0%
CC1(C)CCC2=C(O1)c1ccccc1C(=O)C2=O [beta-Lapachone]	< 0%	< 0%	< 0%	< 0%	< 0%	4.57%	12%	< 0%

— the supplement of paper PMC9015667
